Data source: PubChem BioAssay AID504774 (Drosophila RNAi Screening Center, 2011)

Aim: 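Fly genes whose loss alters survival after alkylation damage to DNA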 (primary screen)
System: Drosophila Kc167 cells
Reagent: long dsRNA against Drosophila genes, about 0.25 µg dsRNA per well
Time to read-out: about 6 days: 3 days knock-down, then 3 days with or without MMS
Treatment: methyl methanesulphonate 0.004% (w/v) for 3 days after knock-down
Measurement: 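Viability in wells given MMS, read as ATP luminescence, normalised by quantiles plate by plate and averaged across replicates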
Scale: mean viability with MMS and viability with MMS: higher = more surviving cells after MMS
The deposit covers about 23,000 reagents; this is a random part of those that have a named target and a result. 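Values are quantile-normalised luminescence on an arbitrary scale; higher means more cells surviving MMS.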 A plus sign joins genes that one reagent is predicted to hit.

gene,dsRNA,mean viability with MMS,"viability with MMS, replicate 1","viability with MMS, replicate 2"
CG3251,DRSC00586,3.42e6,3.78e6,3.95e6
Klp67A + CG34456,DRSC10420,3.52e6,4.31e6,3.68e6
Dph3 (Diphthamide biosynthesis 3),DRSC14923,3.62e6,4.12e6,4.03e6
CG9822,DRSC04568,3.45e6,3.82e6,3.98e6
sas (stranded at second),DRSC12631,3.42e6,3.94e6,3.84e6
Vha36-3 (Vacuolar H[+] ATPase 36kD subunit 3),DRSC18615,3.61e6,4.06e6,4.13e6
CG13309,DRSC09980,3.41e6,3.85e6,3.85e6
pnut (peanut),DRSC07666,3.49e6,3.92e6,3.97e6
Rap1 (Rap1 GTPase),DRSC08686,3.53e6,4.05e6,3.96e6
CG15475,DRSC02486,3.48e6,3.95e6,3.93e6
CG4712,DRSC06882,3.68e6,4.25e6,4.15e6
CG34200,DRSC04804,3.70e6,4.22e6,4.20e6
Cpr66Cb (Cuticular protein 66Cb),DRSC10769,3.56e6,3.97e6,4.12e6
Nf1 (Neurofibromin 1),DRSC16758,3.59e6,4.12e6,4.01e6
Nup214 (Nucleoporin 214kD),DRSC04421,3.56e6,3.86e6,4.08e6
CG31805,DRSC01563,3.49e6,3.96e6,3.97e6
Rbcn-3A (Rabconnectin-3A),DRSC18314,3.38e6,3.84e6,3.82e6
lig (lingerer),DRSC07246,3.34e6,3.83e6,3.72e6
lig (lingerer),DRSC07247,3.48e6,4.03e6,3.88e6
Obp56i (Odorant-binding protein 56i),DRSC05812,3.53e6,4.08e6,3.92e6
"Pp1-Y1 (Protein phosphatase 1, Y-linked 1)",DRSC20896,2.18e6,3.78e6,3.87e6
CG6484,DRSC06991,3.60e6,4.08e6,4.10e6
Fkbp14 (FK506-binding protein 14),DRSC04615,3.70e6,4.13e6,4.16e6
eag (ether a go-go),DRSC19067,3.45e6,3.96e6,3.89e6
eag (ether a go-go),DRSC20328,3.84e6,4.30e6,4.25e6
CG14230,DRSC19586,3.43e6,3.94e6,3.81e6
CG11617,DRSC00321,3.57e6,4.00e6,4.11e6
CG11617,DRSC21786,3.23e6,3.75e6,3.80e6

3 of these entries, reformatted.
pnut (peanut) [DRSC07666] | mean viability with MMS = 3.49e6; viability with MMS, replicate 1 = 3.92e6; viability with MMS, replicate 2 = 3.97e6
Rap1 (Rap1 GTPase) [DRSC08686] | mean viability with MMS = 3.53e6; viability with MMS, replicate 1 = 4.05e6; viability with MMS, replicate 2 = 3.96e6
CG15475 [DRSC02486] | mean viability with MMS = 3.48e6; viability with MMS, replicate 1 = 3.95e6; viability with MMS, replicate 2 = 3.93e6
